Construct, isoform or probe ends are uncertain for at least one entry. Results from cells or extracts need not show a direct contact. A weaker result is weaker than the reference pair of the same experiment. At least one verdict was read from the data and is not stated in words by the source.
Target: STAT3 (endogenous, U266 nuclear extract, IL-6 stimulated) (UniProt P40763)
Assay: EMSA
Conditions: 5 ug nuclear extract, 1 ug poly(dI:dC), 4% native PAGE, antibody 25 min at room temperature, buffer composition, salt and pH not stated, protein in an extract, label: biotin 3' end

Protein sequences, listed by entry. Tags and fused reporters are not part of them. Residues count along the entry.
UniProt P40763, 2-770: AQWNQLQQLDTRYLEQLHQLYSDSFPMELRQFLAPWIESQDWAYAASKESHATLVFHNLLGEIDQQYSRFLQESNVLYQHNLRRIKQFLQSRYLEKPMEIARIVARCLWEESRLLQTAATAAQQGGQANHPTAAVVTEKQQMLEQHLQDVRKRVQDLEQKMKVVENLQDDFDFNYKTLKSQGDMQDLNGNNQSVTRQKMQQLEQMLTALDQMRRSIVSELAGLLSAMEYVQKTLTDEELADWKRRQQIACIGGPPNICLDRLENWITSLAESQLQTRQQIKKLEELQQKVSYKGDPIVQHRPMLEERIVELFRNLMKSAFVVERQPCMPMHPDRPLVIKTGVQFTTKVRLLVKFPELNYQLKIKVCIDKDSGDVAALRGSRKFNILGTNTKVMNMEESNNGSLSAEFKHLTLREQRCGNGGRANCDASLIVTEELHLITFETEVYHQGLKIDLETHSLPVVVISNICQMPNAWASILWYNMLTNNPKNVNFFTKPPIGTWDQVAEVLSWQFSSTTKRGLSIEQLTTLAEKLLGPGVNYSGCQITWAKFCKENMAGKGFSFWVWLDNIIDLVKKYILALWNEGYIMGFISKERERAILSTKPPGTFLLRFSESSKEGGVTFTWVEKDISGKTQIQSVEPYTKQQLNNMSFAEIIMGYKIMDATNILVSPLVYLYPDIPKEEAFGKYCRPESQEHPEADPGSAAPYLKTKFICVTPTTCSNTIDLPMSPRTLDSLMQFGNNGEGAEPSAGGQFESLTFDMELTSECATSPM

Does “GATCCTTCTGGGAATTCCTAGATC (double strand) [STAT3 element probe, wild type]” bind (IL-6 20 ng/ml 30 min, no YL064)?
Result: binds

Does “GATCCTTCTGGGAATTCCTAGATC (double strand) [STAT3 element probe, wild type]” bind (cells pretreated with YL064 24 h, then IL-6 20 ng/ml 30 min)?
Result: binds more weakly

— PMC6170385
